Experimental data reported in PubChem BioAssay AID1347131 (National Center for Advancing Translational Sciences (NCATS), 2019).
Hit rate of the full screen: of about 410,000 compounds, about 2,000 (0.49%) were called active. The inconclusive results got no clear call from the source; some entries with a clear call stand among them for comparison. The call rests on the fitted dose curve; tested in HEK293 reporter line. Potencies beside an inconclusive call are fits to weak or partial responses and may not hold up.

experiment: qHTS Assay for Foot and Mouth Disease Virus Antivirals: Primary Screen against the MLPCN compound library; details: FMDV antiviral cell-based qHTS; activity, negative = inhibition: at 57.9 µM (top of the series); further: nearly all actives have a fitted effect of over 55% in size
Potency means the concentration at half of the fitted maximal effect.

Q: For N#CC(=C=[N-])c1nc2ccccc2nc1-[n+]1ccccc1, which “activity, negative = inhibition” value is on record?
A: inactive: -31.6%

Q: With C[C@H]1CCC[C@H](O)CCCCCc2cc(O)cc(O)c2C(=O)O1 as the molecule, how does the Potency read?
A: inconclusive: 11.2 µM [inhibitor, partial curve, poor fit]

Q: Which Potency does the source give for CCN(CC)S(=O)(=O)c1ccc(N2CCN(c3ccccc3OC)CC2)c(N)c1 here?
A: inconclusive: 22.4 µM [inhibitor, partial curve, poor fit]

Q: With COc1ccc(CNC(=O)/C(C#N)=C/c2cccc(OC)c2OC)cc1 as the molecule, how does the Potency read?
A: inconclusive: 22.4 µM [inhibitor, partial curve, poor fit]

Q: With COc1ccc(NC(=O)CSc2nc3ccccc3n2-c2ccccc2)c([N+](=O)[O-])c1 as the molecule, how does the Potency read?
A: inconclusive: 2.51 µM [inhibitor, partial curve, poor fit]

Q: For COc1cccc(-c2ccc(NC(=O)C3CCCN(CCCn4cccn4)C3)cc2)c1 (stereo unspecified), which Potency is on record?
A: inconclusive: 35.5 µM [inhibitor, partial curve, poor fit]

Q: For CCOC(=O)C1NC(=O)CC1c1ccccc1 (stereo unspecified), which Potency is on record?
A: inconclusive: 0.631 µM [inhibitor, partial curve, poor fit]

Q: Which Potency does the source give for CCCCc1c(C)c(C#N)c2[nH]c3ccccc3n2c1=O here?
A: inconclusive: 22.4 µM [inhibitor, partial curve, poor fit]

Q: For CCOC(=O)C1CCN(C(=O)c2ccccc2)c2scc(-c3ccccc3)c2C1=O (stereo unspecified), which Potency is on record?
A: inconclusive: 31.6 µM [inhibitor, partial curve, poor fit]

Q: With CCOc1ccc(N=C(C)C2=C(O)c3ccccc3C2=O)cc1 as the molecule, how does the Potency read?
A: inconclusive: 15.8 µM [inhibitor, single point]

Q: Which Potency does the source give for OC(CN1CCN(c2ccccn2)CC1)Cn1c2ccc(Cl)cc2c2cc(Cl)ccc21 (stereo unspecified) here?
A: inconclusive: 22.4 µM [inhibitor, single point]

Q: For O=C1C=C2C(=CCOC2O)O1 (stereo unspecified), which Potency is on record?
A: inconclusive: 14.1 µM [inhibitor, partial curve, poor fit]

Q: With CCN(CC)S(=O)(=O)c1cccc(NC(=O)COC(=O)c2cncc(Br)c2)c1 as the molecule, how does the “activity, negative = inhibition” value read?
A: inactive: -37.1%

Q: For Cn1ncnc2c(=O)n(C)c(=O)nc1-2, which Potency is on record?
A: inconclusive: 1.58 µM [inhibitor, full curve, poor fit]

Q: Which Potency does the source give for CCOC(=O)C1CCCN(C(=O)c2cc3nc(-c4ccc5c(c4)OCO5)cc(C(F)(F)F)n3n2)C1 (stereo unspecified) here?
A: inconclusive: 35.5 µM [inhibitor, partial curve, poor fit]

Q: For CCc1nnc(NC(=O)c2nc(S(=O)(=O)Cc3ccc(C)cc3)ncc2Cl)s1, which Potency is on record?
A: inconclusive: 28.2 µM [inhibitor, single point]

Q: For Cc1cccc(NC(=O)c2sc(NC(=O)COc3ccccc3)c(C#N)c2C)c1C, which Potency is on record?
A: inconclusive: 31.6 µM [inhibitor, partial curve, poor fit]

Q: With COc1ccc(N(C)S(=O)(=O)c2cccc(C(=O)Nc3nc(C)c(C(C)=O)s3)c2)cc1 as the molecule, how does the “activity, negative = inhibition” value read?
A: inactive: -50.3%

Q: With Cc1ccccc1OCc1nnc(SCc2cc(=O)[nH]c3ccccc23)n1-c1ccccc1 as the molecule, how does the Potency read?
A: inconclusive: 3.98 µM [inhibitor, full curve]

Q: Which Potency does the source give for Cc1ccc(C)c(OCC(=O)NCCNC(=O)COc2cc(C)ccc2C)c1 here?
A: inconclusive: 39.8 µM [inhibitor, partial curve, poor fit]

Q: Which Potency does the source give for Cn1nc(C(=O)NCc2ccc(Cl)cc2)c2c1-c1ccccc1S(=O)(=O)C2 here?
A: inconclusive: 15.8 µM [inhibitor, partial curve]

Q: For COc1ccc(-c2ccc(Nc3ccc(S(=O)(=O)N4CCCC4)cc3)nn2)cc1OC, which Potency is on record?
A: inconclusive: 14.1 µM [inhibitor, partial curve, poor fit]

Q: Which Potency does the source give for COCCN1CCN(c2cc(-c3ccccc3)nc3cc(-c4cccc(F)c4)nn23)CC1 here?
A: inconclusive: 14.1 µM [inhibitor, partial curve, poor fit]

Q: For N#Cc1c(N)nc(SCc2ccncc2)c(C#N)c1-c1cccs1, which Potency is on record?
A: inconclusive: 15.8 µM [inhibitor, partial curve, poor fit]

Q: For O=C(Cn1c(=O)n(Cc2nc(-c3ccccc3)no2)c(=O)c2ccccc21)Nc1cccc(C(F)(F)F)c1, which Potency is on record?
A: inconclusive: 20 µM [inhibitor, partial curve, poor fit]

Q: Which Potency does the source give for COc1ccc(N2CCN(C(=O)NC(=O)c3ccccc3)CC2)cc1 here?
A: inconclusive: 20 µM [inhibitor, single point]

Q: Which Potency does the source give for CCOc1ccc(CN2CCc3nc(N4CCN(c5ccccc5OC)CC4)ncc3C2)cc1OC here?
A: inconclusive: 20 µM [inhibitor, partial curve, poor fit]

Q: Which Potency does the source give for O=C(COC(=O)/C(=C/c1cccs1)c1cccs1)NC(c1ccccc1)c1ccccc1 here?
A: inconclusive: 11.2 µM [inhibitor, partial curve, poor fit]

Q: Which Potency does the source give for O=C(Nc1cccc(Cl)c1)C1C2CCC3C(CCC21)C3(Cl)Cl (stereo unspecified) here?
A: inconclusive: 39.8 µM [inhibitor, partial curve, poor fit]

Q: Which Potency does the source give for Cc1[nH]c2ccccc2c1C(=O)/C=C\c1ccccc1Cl here?
A: inconclusive: 39.8 µM [inhibitor, single point]

Q: With COc1cc(NC(=O)COc2cc3oc(=O)cc(C)c3cc2Cl)cc(OC)c1OC as the molecule, how does the Potency read?
A: inconclusive: 12.6 µM [inhibitor, single point]

Q: Which Potency does the source give for Cc1ccc(C(OCC(O)CNC(C)c2ccccc2)c2ccccc2)cc1 (stereo unspecified) here?
A: inconclusive: 20 µM [inhibitor, partial curve, poor fit]

Q: With CC(C)(C)n1ncc2c(=O)n(CC(=O)NCc3ccc(F)cc3)cnc21 as the molecule, how does the Potency read?
A: inconclusive: 15.8 µM [inhibitor, single point]

Q: For Cc1nc2ccccn2c1C(=O)N/N=C/c1ccc([N+](=O)[O-])o1, which Potency is on record?
A: inconclusive: 39.8 µM [inhibitor, partial curve, poor fit]

Q: Which Potency does the source give for CCOC(=O)c1cccc(NC(=O)/C=C/c2ccc3c(c2)OCO3)c1 here?
A: inconclusive: 39.8 µM [inhibitor, partial curve, poor fit]

Q: With Cc1ccc(NS(=O)(=O)c2ccc(Cl)c(C(=O)Nc3ccccc3-c3nc4ccccc4[nH]3)c2)cc1C as the molecule, how does the Potency read?
A: inconclusive: 39.8 µM [inhibitor, single point]
